According to PMC6656429:
These are yes or no findings as the source states them, for the method shown. For part of these data: Binding seen in cells or lysates may run through a third protein. Some results given as binding are weak or reduced against the parent protein; the word gives no strength. For part of these data: Tags and fused reporters may be left off the sequences shown.

Sequences of proteins named here, by UniProt entry; tags and fusion partners are left off. A change or cut given only in a name is not applied to a line headed by its entry.
UniProt O14777: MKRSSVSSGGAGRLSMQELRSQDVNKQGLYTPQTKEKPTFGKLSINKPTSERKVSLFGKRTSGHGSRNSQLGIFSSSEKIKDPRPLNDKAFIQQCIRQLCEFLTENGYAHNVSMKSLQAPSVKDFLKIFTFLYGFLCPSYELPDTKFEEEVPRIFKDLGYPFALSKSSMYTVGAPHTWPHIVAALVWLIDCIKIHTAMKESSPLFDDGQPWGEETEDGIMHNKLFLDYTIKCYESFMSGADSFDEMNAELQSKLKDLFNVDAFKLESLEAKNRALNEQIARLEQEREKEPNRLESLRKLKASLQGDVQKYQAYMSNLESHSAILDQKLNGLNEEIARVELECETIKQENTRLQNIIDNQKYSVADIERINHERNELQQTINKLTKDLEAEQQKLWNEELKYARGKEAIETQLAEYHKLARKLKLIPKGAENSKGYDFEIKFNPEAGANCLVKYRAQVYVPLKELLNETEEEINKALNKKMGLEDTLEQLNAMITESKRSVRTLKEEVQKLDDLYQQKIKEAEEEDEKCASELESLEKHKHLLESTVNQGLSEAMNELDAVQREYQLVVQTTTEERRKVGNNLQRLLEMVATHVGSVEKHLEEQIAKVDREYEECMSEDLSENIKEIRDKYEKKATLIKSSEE
UniProt Q9BZD4: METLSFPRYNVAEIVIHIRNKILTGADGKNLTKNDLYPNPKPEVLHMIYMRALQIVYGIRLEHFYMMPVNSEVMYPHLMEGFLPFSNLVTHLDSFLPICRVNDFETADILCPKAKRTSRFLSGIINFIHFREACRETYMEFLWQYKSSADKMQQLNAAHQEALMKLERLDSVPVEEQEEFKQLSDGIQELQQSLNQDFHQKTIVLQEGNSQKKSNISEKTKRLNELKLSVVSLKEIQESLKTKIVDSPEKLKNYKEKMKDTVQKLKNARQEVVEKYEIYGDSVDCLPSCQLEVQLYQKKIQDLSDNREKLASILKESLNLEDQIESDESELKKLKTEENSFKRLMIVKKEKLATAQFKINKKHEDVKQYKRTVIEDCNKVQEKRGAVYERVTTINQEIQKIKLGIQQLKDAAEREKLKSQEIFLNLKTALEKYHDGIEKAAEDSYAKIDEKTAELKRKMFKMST
UniProt Q8NBT2: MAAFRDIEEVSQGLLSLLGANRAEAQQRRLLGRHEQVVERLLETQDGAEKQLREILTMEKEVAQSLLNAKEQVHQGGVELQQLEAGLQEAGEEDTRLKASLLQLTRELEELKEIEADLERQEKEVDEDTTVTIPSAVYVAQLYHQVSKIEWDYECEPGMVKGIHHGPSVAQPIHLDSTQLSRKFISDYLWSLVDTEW
UniProt Q9HBM1: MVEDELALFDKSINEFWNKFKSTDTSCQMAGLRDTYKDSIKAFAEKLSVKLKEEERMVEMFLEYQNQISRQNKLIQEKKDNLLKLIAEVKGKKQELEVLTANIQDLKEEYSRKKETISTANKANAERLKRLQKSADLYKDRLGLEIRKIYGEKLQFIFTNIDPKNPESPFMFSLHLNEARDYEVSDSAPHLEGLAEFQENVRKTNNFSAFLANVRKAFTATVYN
UniProt O43683: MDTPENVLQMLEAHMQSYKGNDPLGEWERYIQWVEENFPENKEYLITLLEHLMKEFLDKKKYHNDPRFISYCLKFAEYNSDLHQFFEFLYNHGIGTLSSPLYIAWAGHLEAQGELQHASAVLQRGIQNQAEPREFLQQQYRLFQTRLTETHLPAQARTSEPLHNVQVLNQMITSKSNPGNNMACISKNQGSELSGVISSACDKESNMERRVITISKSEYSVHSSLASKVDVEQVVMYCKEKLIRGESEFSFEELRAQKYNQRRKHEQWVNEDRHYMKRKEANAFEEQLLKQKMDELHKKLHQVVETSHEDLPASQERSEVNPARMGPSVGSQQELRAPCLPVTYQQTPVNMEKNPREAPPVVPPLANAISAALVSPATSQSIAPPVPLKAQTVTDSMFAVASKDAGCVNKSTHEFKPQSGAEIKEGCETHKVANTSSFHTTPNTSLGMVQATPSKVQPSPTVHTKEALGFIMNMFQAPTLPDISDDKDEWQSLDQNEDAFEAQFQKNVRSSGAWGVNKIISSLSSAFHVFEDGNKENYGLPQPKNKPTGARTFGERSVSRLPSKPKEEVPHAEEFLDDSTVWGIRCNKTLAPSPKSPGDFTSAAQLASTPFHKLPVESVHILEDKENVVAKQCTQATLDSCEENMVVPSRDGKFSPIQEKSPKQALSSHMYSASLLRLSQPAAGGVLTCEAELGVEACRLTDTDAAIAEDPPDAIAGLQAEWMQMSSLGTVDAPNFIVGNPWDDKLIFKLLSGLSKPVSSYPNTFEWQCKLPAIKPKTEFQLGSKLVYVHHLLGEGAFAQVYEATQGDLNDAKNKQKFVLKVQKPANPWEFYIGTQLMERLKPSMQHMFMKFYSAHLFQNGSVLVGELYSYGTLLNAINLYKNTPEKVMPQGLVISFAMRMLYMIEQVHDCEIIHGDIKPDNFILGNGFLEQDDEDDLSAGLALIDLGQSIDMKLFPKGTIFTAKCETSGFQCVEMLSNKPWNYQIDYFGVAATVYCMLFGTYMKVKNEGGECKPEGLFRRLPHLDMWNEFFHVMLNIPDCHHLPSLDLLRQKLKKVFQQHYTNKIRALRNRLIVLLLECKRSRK
UniProt Q9H081: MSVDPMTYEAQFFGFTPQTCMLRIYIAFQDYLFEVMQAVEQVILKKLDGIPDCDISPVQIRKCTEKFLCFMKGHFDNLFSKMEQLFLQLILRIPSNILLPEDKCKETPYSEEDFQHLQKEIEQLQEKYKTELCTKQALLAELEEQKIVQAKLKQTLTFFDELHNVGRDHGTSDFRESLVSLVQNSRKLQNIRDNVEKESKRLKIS

T1: DSN1-His (subunit of recombinant CFP-MIS12C) (human) (UniProt Q9H410)
T1 sequence: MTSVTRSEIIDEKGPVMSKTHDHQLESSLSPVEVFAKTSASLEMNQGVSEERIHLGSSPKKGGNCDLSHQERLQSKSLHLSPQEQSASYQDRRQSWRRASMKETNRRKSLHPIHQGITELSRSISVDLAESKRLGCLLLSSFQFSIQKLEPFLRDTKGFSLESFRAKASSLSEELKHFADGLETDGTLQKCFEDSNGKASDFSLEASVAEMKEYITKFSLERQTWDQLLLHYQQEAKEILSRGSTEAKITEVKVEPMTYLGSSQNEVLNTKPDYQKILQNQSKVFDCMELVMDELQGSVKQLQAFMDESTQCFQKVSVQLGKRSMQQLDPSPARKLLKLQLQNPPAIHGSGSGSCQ


Tests used:
[1] = target: GFP-NDC80C^WT (recombinant GFP-labeled NDC80 complex of NDC80, NUF2, SPC24 and SPC25) (human) (UniProt O14777+Q9BZD4+Q8NBT2+Q9HBM1); experiment: co-IP; GFP-Trap beads on 4 mg protein extract of mitotic HeLa cells (nocodazole 16 h, shake off) previously electroporated with the recombinant GFP protein; 3 h at 4°C; lysis buffer 150 mM KCl, 75 mM Hepes pH 7.5, 1.5 mM EGTA, 1.5 mM MgCl2, 10% glycerol, 0.075% NP-40; western blot; only the target …
[2] = target: T1, DSN1-His (subunit of recombinant CFP-MIS12C) (human); experiment: co-purification (His affinity, anion exchange, size exclusion); four MIS12C subunits co-expressed in Tnao38 insect cells; HisTrap FF with 300 mM imidazole step elution, Resource Q with NaCl gradient, Superdex 200 10/300 in 20 mM Tris-HCl pH 8.0, 0.15 M NaCl, 1 mM TCEP
[3] = target: SPC25 with C-terminal GFP and His6 tag (subunit of recombinant NDC80C^9A-GFP) (human) (UniProt Q9HBM1); experiment: co-purification (His affinity, anion exchange, size exclusion); four NDC80C subunits co-expressed in Tnao38 insect cells; elution with 300 mM imidazole, Resource Q with 25-400 mM NaCl gradient, Superose 6 16/70 in 50 mM HEPES pH 8, 250 mM NaCl, 5% glycerol, 2 mM TCEP

binding [1]	binding [2]	binding [3]	Molecule
binds			BUB1 (endogenous) (from UniProt O43683 1-1085)
binds			MIS12 (endogenous) (from UniProt Q9H081 1-205)
	binds		MIS12 (subunit of recombinant CFP-MIS12C) (from UniProt Q9H081 1-205)
		binds	NUF2 (subunit of recombinant NDC80C^9A-GFP) (from UniProt Q9BZD4 1-464)
		binds	SPC24 (subunit of recombinant NDC80C^9A-GFP) (from UniProt Q8NBT2 1-197)
	binds		CFP-PMF1 (subunit of recombinant CFP-MIS12C) (protein, UniProt Q6P1K2 1-205) MAEASSANLGSGCEEKRHEGSSSESVPPGTTISRVKLLDTMVDTFLQKLVAAGSYQRFTDCYKCFYQLQPAMTQQIYDKFIAQLQTSIREEISDIKEEGNLEAVLNALDKIVEEGKVRKEPAWRPSGIPEKDLHSVMAPYFLQQRDTLRRHVQKQEAENQQLADAVLAGRRQVEELQLQVQAQQQAWQALHREQRELVAVLREPE
